Test results reported in PubChem BioAssay AID256 (DTP/NCI, 2004).
The list is a part of this screen's results and no random one: its compounds were picked by chemical class. Other doses and runs of a compound may be missing. T/C: endpoint of the treated group in % of that of the vehicle group. For survival time, the PubChem record calls one and a half times the control and up active, and a quarter to a half above the control has no call in these data; cut-offs in other NCI protocols can differ. Schedules are NCI's codes, read here as Q, the interval in days (D) or hours (H), X, the number of doses. Some T/C values are marked as having no survivor count here; that says nothing about deaths at the dose. Some entries were tested several times; their values stand side by side, smallest first. Counts like (3×) give the number of equal values in this list.

Test system: CD2F1 mice, L1210 leukemia ip, survival T/C
Assay: NCI In Vivo Anticancer Drug Screen. Data for tumor model L1210 Leukemia (intraperitoneal) in CD2F1 (CDF1) mice
Conditions: T/C endpoint: mean survival time, higher T/C = longer survival
Experimental: The antitumor activity of compounds was measured in mice bearing transplantable tumors. Survival or tumor size were measured and the results are expressed as the measurement made in the treated group (T) divided by the measurement made in the vehicle treated control group (C). The tumor model used in this assay is L1210 Leukemia (intraperitoneal) in CD2F1 (CDF1) mice

CN(CCCl)CCCl
T/C (dose: 0.75 mg/kg/injection, schedule: Q04DX003 (ip), vehicle: saline): 152 % of control [survivor count not shown] | T/C (dose: 0.8 mg/kg/injection, schedule: Q01DX001 (ip), vehicle: none): 132 % of control [survivor count not shown] | T/C (dose: 0.8 mg/kg/injection, schedule: Q01DX001 (ip), vehicle: saline): 132 % of control [survivor count not shown] | T/C (dose: 1.0 mg/kg/injection, schedule: Q01DX001 (ip), vehicle: saline): 115 [survivor count not shown] (2×) and 136 % of control [survivor count not shown] | T/C (dose: 1.0 mg/kg/injection, schedule: Q01DX001 (ip), vehicle: water): 115 % of control [survivor count not shown] | T/C (dose: 1.0 mg/kg/injection, schedule: Q01DX001 (iv), vehicle: water): 110 % of control [survivor count not shown] | T/C (dose: 1.0 mg/kg/injection, schedule: Q01DX001 (sc), vehicle: water): 113 % of control [survivor count not shown] | T/C (dose: 1.0 mg/kg/injection, schedule: Q01DX005 (iv), vehicle: water): 127 % of control [survivor count not shown] | T/C (dose: 1.0 mg/kg/injection, schedule: Q01DX009 (ip), vehicle: saline): 123 [survivor count not shown] and 146 % of control [survivor count not shown] | T/C (dose: 1.0 mg/kg/injection, schedule: Q01DX009 (oral), vehicle: water): 104 % of control [survivor count not shown] | T/C (dose: 1.0 mg/kg/injection, schedule: Q01DX009 (sc), vehicle: water): 118 % of control [survivor count not shown] | T/C (dose: 1.0 mg/kg/injection, schedule: Q04DX003 (ip), vehicle: saline with Tween-80): 141 % of control [survivor count not shown] | T/C (dose: 1.0 mg/kg/injection, schedule: Q04DX003 (ip), vehicle: saline, evaluated on day 30): 134 % of control | T/C (dose: 1.0 mg/kg/injection, schedule: Q04DX003 (ip), vehicle: saline, evaluation day not shown): 128 % of control [survivor count not shown] | T/C (dose: 1.0 mg/kg/injection, schedule: Q04DX003 (ip), vehicle: water): 135 % of control [survivor count not shown] | T/C (dose: 1.0 mg/kg/injection, schedule: Q08DX002 (ip), vehicle: water): 125 % of control [survivor count not shown] | T/C (dose: 1.5 mg/kg/injection, schedule: Q01DX001 (ip), vehicle: DMSO): 137 % of control [survivor count not shown] | T/C (dose: 1.5 mg/kg/injection, schedule: Q01DX001 (ip), vehicle: Klucel (hydroxypropylcellulose) (HPC)): 135 [survivor count not shown] and 144 % of control [survivor count not shown] | T/C (dose: 1.5 mg/kg/injection, schedule: Q01DX001 (ip), vehicle: other): 124 % of control [survivor count not shown] | T/C (dose: 1.5 mg/kg/injection, schedule: Q01DX001 (ip), vehicle: saline): 124 [survivor count not shown], 131 [survivor count not shown], 132 [survivor count not shown], 155 % of control [survivor count not shown] | T/C (dose: 1.5 mg/kg/injection, schedule: Q04DX003 (ip), vehicle: saline with Tween-80): 161 % of control [survivor count not shown] | T/C (dose: 1.5 mg/kg/injection, schedule: Q04DX003 (ip), vehicle: saline): 149 [survivor count not shown] and 193 % of control [survivor count not shown] | T/C (dose: 1.6 mg/kg/injection, schedule: Q01DX001 (ip), vehicle: none): 129 % of control [survivor count not shown] | T/C (dose: 1.6 mg/kg/injection, schedule: Q01DX001 (ip), vehicle: saline): 129 % of control [survivor count not shown] | T/C (dose: 2.0 mg/kg/injection, schedule: Q01DX001 (ip), vehicle: saline): 121 [survivor count not shown] (2×) and 142 % of control [survivor count not shown] | T/C (dose: 2.0 mg/kg/injection, schedule: Q01DX001 (ip), vehicle: water): 134 % of control [survivor count not shown] | T/C (dose: 2.0 mg/kg/injection, schedule: Q01DX001 (iv), vehicle: water): 120 % of control [survivor count not shown] | T/C (dose: 2.0 mg/kg/injection, schedule: Q01DX001 (sc), vehicle: water): 123 % of control [survivor count not shown] | T/C (dose: 2.0 mg/kg/injection, schedule: Q01DX009 (ip), vehicle: saline): 95 % of control [survivor count not shown] | T/C (dose: 2.0 mg/kg/injection, schedule: Q01DX009 (oral), vehicle: water): 120 % of control [survivor count not shown] | T/C (dose: 2.0 mg/kg/injection, schedule: Q04DX003 (ip), vehicle: saline): 136 % of control | T/C (dose: 2.0 mg/kg/injection, schedule: Q04DX003 (ip), vehicle: water): 138 % of control [survivor count not shown] | T/C (dose: 2.0 mg/kg/injection, schedule: Q08DX002 (ip), vehicle: water): 131 % of control [survivor count not shown] | T/C (dose: 2.3 mg/kg/injection, schedule: Q01DX001 (ip), vehicle: saline): 145 [survivor count not shown] and 197 % of control [survivor count not shown] | T/C (dose: 3.0 mg/kg/injection, schedule: Q01DX001 (ip), vehicle: DMSO): 164 % of control [survivor count not shown] | T/C (dose: 3.0 mg/kg/injection, schedule: Q01DX001 (ip), vehicle: Klucel (hydroxypropylcellulose) (HPC)): 131 % of control [survivor count not shown] | T/C (dose: 3.0 mg/kg/injection, schedule: Q01DX001 (ip), vehicle: saline): 102 [survivor count not shown], 141 [survivor count not shown], 142 [survivor count not shown], 149 % of control [survivor count not shown]
